The other results are listed elsewhere or left out.
B1: il2ra_site2_3nfp_sap_17_mot_HHH_b1_05627_af2_000000038_0001_43_56_H_._HHH_b2_05199_af2_0001_0000300015_0000001_0_0001 (protein)
chain: SSSSDREEVRKLLEELEEAVERNDDELFRELLRRIAQLIFEIGDFELFAILAELRAKFVQSSSSS
B2: il2ra_site1_1z92_normal_mot_HHH_b2_07217_af2_000000241_0001_1_19_H_._HHH_b1_07228_0001_0000100005_0000001_0 (protein)
chain: SSSSDKEEESAEYHRELLEAALKLGSEKALRLLLRDIELFLKRTKDEELERLMEEVEEELSSSSS
B3: il2ra_site2_3nfp_sap_18_mot_7f6a3539c8daa08639e4cdbcc6f77908_0001_af2_000000032_0001_16_31_H_._HHH_b1_04314_af2_0001_0000300027_0000001_0_0001 (protein)
chain: SSSSDKSEEYLRIALELLEEAIKAGDEEAARSHLEVAKAAAESHNDEEVEERLEELEELLSSSSS
B4: il2ra_site1_2b5i_sap_6_mot_HHH_b1_00824_af2_000000079_0001_41_56_H_._HHH_b2_00132_af2_0001_0000100012_0000001_0_0001_af2pred_0001_af2pred_1 (protein)
chain: SSSSSEESEELLELLEEAQRLLENGNPEEAREVLKEAYRLAEEAGNRSLLKIIESALRQFSSSSS
B5: il2ra_site1_3nfp_sap_6_mot_HHH_b1_03953_af2_000000297_0001_43_57_H_._HHH_b2_01865_0001_0000100005_0000001_0_0001_af2pred_0001_af2pred_swapped (protein)
chain: SLERFVENVIKLLRKLDPELARLLEIALELAKEGDPEAREVLKRVLRLLARGNPEQARELLEELE
B6: il2ra_site1_1z92_normal_mot_dddd11d5de81826a7497a0a2545a4374_0001_1_000000154_0001_35_49_H_._73748e87acf97c5b21ce774ef908246a_0001_af2_0001_0000300024_0000001_1 … (protein)
chain: SNEEKVEELAKKLGIPPEEVEKAIEYLREEEKIPPRNAVIYLLIILRKVEEGDPTAERLLEDLIE
B7: il2ra_site2_3nfp_normal_mot_HHH_b1_00660_af2_000000090_0001_40_57_H_._HHH_b2_05851_af2_0001_0001100007_0000001_1_af2pred_0001_af2pred_1_swapped (protein)
chain: SSSSDEEEVERLVEELLEEAKKIEDPEERERVLHRAATVAAQAGDHELFVLVLRVLEKLGSSSSS
B8: il2ra_site1_2b5i_sap_9_mot_HHH_b2_04131_000000150_0001_1_16_H_._HHH_b2_05123_0001_0000300010_0000001_0_0001_af2pred_dldesign_0_af2pred (protein)
chain: SSSSSSSSDWRALLREADAAFKAGDIARLEELLARARAAGWDKVAAAIEKAIEDLKKSSSSSSSS
B9: il2ra_site1_1z92_normal_mot_HHH_b2_08380_af2_000000158_0001_44_57_H_._HHH_b1_04199_af2_0001_0000100003_0000001_0 (protein)
chain: SSSSSDEAQERIAELFHEASRVDREEAKELLEEAEELAEENNDERLLKDVRQALEFFELSSSSSS
B10: il2ra_site1_2b5i_sap_11_mot_HHH_b2_06044_000000134_0001_1_20_H_._HHH_b2_00948_af2_0001_0000100015_0000001_0_0001_af2pred_dldesign_0_af2pred (protein)
chain: SSSSDPEDEIYDLFNKALELYKAGKREEAKKLLEEALKLAEAANDAKAVAELKYLLERLKSSSSS
B11: il2ra_site1_2b5i_normal_mot_HHH_b2_04373_af2_000000166_0001_1_14_H_._HHH_b1_03244_0001_0000100001_0000001_1_af2pred_dldesign_0_af2pred (protein)
chain: SSSSDPEAEREALLKRVDELLEKLKSPKKKKVLEDAKKRLEEENDPNAFKFLKDFVERAKSSSSS
B12: il2ra_site2_3nfp_sap_29_mot_0a42daeb3aece44cdc522fd0f5bebdbb_0001_af2_000000199_0001_52_65_H_._9d722f4281fe2ab0f1894ca7efdbd281_0001_1_0001_0000400006_0000001_0 … (protein)
chain: SSSSDREEAEELLEQLERALREGDEELFEELRREVARLVLQIGDEELAHLLDELAILALELSSSS
B13: il2ra_site1_1z92_normal_mot_0a69b5c9b02373fb877a90f2b4b0d8e1_0001_1_af2_000000257_0001_17_32_H_._25b8f65eea30506755b2c3fc02a1d269_0001_0001_0000100005_0000001_0 … (protein)
chain: SALQRDVERSLEHGIPPRAIARVLIKALKREGDVEEAIEELEELAKKLNDPALEEVAELLRELIK
B14: il2ra_site1_1z92_sap_18_mot_6e12af4a48b4634929ba45889b8be782_0001_af2_000000007_0001_36_50_H_._HHH_b2_03999_0001_0000300019_0000001_0_0001 (protein)
chain: SSSNSEEMLRMLIRQIEMALRRGNPEAVRWHLELLELLAKNAEDPEAEKEVERLEELLEELSSSS
B15: il2ra_site1_2b5i_normal_mot_HHH_b1_06258_af2_000000112_0001_42_56_H_._HHH_b2_04681_0001_0000100003_0000001_0 (protein)
chain: SSSSDEEEERVDELFLEASRLWKEGDPEEAERVLEEAARLAKEAGDERALRQVEFMLERLRSSSS
B16: il2ra_site2_2erj_normal_mot_HHH_b1_07584_000000201_0001_42_55_H_._HHH_b1_03002_af2_0001_0000200013_0000001_1 (protein)
chain: SSSSSEEQEELQELIIKLSELAEQGNPEEAEKVLEEAKRLAKELNDETTLRYLELIERHLSSSSS
B17: il2ra_site2_3nfp_normal_mot_HHH_b1_00660_af2_000000199_0001_40_57_H_._HHH_b1_07932_0001_0000200014_0000001_1 (protein)
chain: SSSSDKEEIEKLLEELEEALREGDEELFRRIARRVSNLIFELGDHELFAILLELLTEFEELSSSS
B18: il2ra_site1_3nfp_sap_6_mot_HHH_b2_07013_af2_000000042_0001_20_36_H_._HHH_b2_00665_0001_0000600012_0000001_0_0001 (protein)
chain: SSSSTFIEEMTREAEEIAEELGNPELAERLRELLERAQEEGDWRYARELIKLIAKVQHAGSSSSS

Each binder was assayed against il2ra, P01589 (assay: yeast display titration).

Apparent Kd, inactive:
B1 no binding seen
B2 no binding seen
B3 no binding seen
B4 no binding seen
B5 no binding seen
B6 no binding seen
B7 no binding seen
B8 no binding seen
B9 no binding seen
B10 no binding seen
B11 no binding seen
B12 no binding seen
B13 no binding seen
B14 no binding seen
B15 no binding seen
B16 no binding seen
B17 no binding seen
B18 no binding seen

No new results follow: entries from further up.
Apparent Kd, inactive:
B7 no binding seen
B8 no binding seen

Reference: paper PMC10163288
